Results from one PubChem assay

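Mixed E. coli culture in which the wild-type GFP-labelled strain's fluorescence is read after 24 h, reported as change in activity.
Percent-style change in GFP activity at 50 µM; values more negative mean stronger inhibition.
Active needs green reporter loss at least twice the red loss with limited overall growth inhibition; inconclusive means no clear call.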

Common to all entries: at 50 µM (top of the series).
Every entry below has the call inconclusive.
These entries are mostly ones the record files as inconclusive; other results of the assay are not listed here.

SMILES	activity change
CC(=O)c1c(C)[nH]c(C(=O)Nc2nc(C)cs2)c1C	-12.04
CC(=O)c1ccc(NC(=O)c2ccc([N+](=O)[O-])o2)cc1	-101.3
COc1ccc(CC(=O)NCc2csc(-c3cccs3)n2)cc1OC	-13.15
Cc1cc(C(=O)COC(=O)c2ccc(Br)o2)c(C)n1C	-33.72
O=C(CSCc1ccc(Br)cc1)NCc1ccccn1	-4.298
COc1ccccc1NC(=O)CN1CCSc2ccccc21	-17.19
Cc1cccc(OCc2nnc(SCC(=O)Nc3ncc(C)s3)o2)c1	12.85
c1cncc(-c2nc3cc4ccccc4cc3[nH]2)c1	-44.52
Cc1ccc2nc(N(CCN(C)C)C(=O)C3CCN(S(=O)(=O)c4cccs4)CC3)sc2c1	-29.93
COC(=O)CNC(=O)COC(=O)c1ccc(Cl)nc1	15.13
O=c1[nH]c2cc([N+](=O)[O-])ccc2c2ccccc12	-1.764
COc1ccccc1C1CCN(C(=O)c2ccco2)CC1	-31.6
c1ccc(CSCc2ccccc2)cc1	-3.874
COc1ccc(C(=O)n2cnc3ccccc32)cc1[N+](=O)[O-]	44.31
CCOC(=O)c1nc(C)sc1-c1ccnn1S(=O)(=O)c1cccc(Cl)c1	-19.89
Clc1ccc(-c2nc(NCCCN3CCOCC3)c3ccccc3n2)cc1	-23.66
Cc1ccc(CCN2C(=O)c3ccccc3C2C(=O)NCc2cccnc2)cc1 (stereo not shown)	-16.78
CCCCNc1ccc2c(c1)OC[C@@H](Cc1ccccc1)NS2(=O)=O	-21.52
O=C(CC1C(=O)NCCN1CC1CCCCC1)NCc1ccc(F)cc1F (stereo not shown)	4.747
Nc1c(Cl)cc(C2=NCCn3nc4ccccc4c32)cc1Cl	-36.88
C=CCN(c1ccccc1)S(=O)(=O)c1cccc2cccnc12	-13.88
CCC(C(=O)Nc1ccsc1C(=O)OC)c1ccccc1 (stereo not shown)	-16.61
C=C1c2cc3c(cc2NC(=S)N1Cc1ccccc1)OCO3	-6.174
COc1ccccc1C1CCN(Cc2cccc([N+](=O)[O-])c2)CC1	22.24
CCC1CCCCN1C(=O)CSc1nnc(-c2cccc(Cl)c2)o1 (stereo not shown)	-18.04
CCc1cccc(NC(=O)CCC(=O)N2CCSc3ccccc32)c1	-35.86
Cc1cc(C)cc(NS(=O)(=O)c2cc(C(=O)NCc3ccccn3)ccc2Cl)c1	-3.352
COc1ccc2c(CC(=O)NCc3ccc4c(c3)OCO4)coc2c1	-3.798
Cc1n[nH]c(C)c1Sc1ccccc1[N+](=O)[O-]	-33.76
Cc1nc2ccc(Br)cc2c(=O)n1Cc1cccs1	-9.962
Cc1ccc(C2NC(c3ccc(C)cc3)C(C)C(=O)C2C)cc1 (stereo not shown)	-23.64
COc1cc2ccccc2cc1C(=O)NCC(c1cccs1)N(C)C (stereo not shown)	5.851
COc1ccc(C(=O)Nc2ccc3nc(C)sc3c2)cc1OC	-10.66
Brc1ccccc1Cn1c(-c2cncs2)nc2ccccc21	-15
COc1ccccc1CC(=O)NCc1csc(-c2cccs2)n1	-14.2
COCCn1c(SCc2nc3ccccc3s2)nc2ccccc21	-34.67
O=C(CSc1nc2ccccc2[nH]1)Nc1ccccc1F	-37.9
COc1ccc(C(C)=O)cc1COc1ccc(Cl)c(C)c1	-5.001
CCOC(=O)c1ccc(CC(=O)c2oc3cc(O)ccc3c2C)o1	-33.91
CSc1ccc(CN(C)C(=O)C(c2ccccc2)c2ccccc2)cc1	-7.893
COC(=O)c1ccc2nc(-c3ccco3)c(Cc3ccc(C)cc3)n2c1	-10.87
CC(C)Oc1nc(-c2ccccc2Cl)nc2ccccc12	-23.55
CN(C)Cc1nc2ccccc2c(=O)n1Cc1nc(-c2cccc([N+](=O)[O-])c2)cs1	-26.05
O=C(c1cc(COc2c(F)cccc2F)on1)N1C[C@H]2CC[C@H]1C2	-15.19
COc1ccccc1C1CC(=O)Oc2cc(C)c(Cl)cc21 (stereo not shown)	-34.54
O=C(Nc1nc2ccccc2n1CCN1CCOCC1)c1ccccc1	3.251
C[C@@H]1NS(=O)(=O)c2c(F)cccc2O[C@@H]1c1ccccc1	-0.357
CCn1cc(Cl)c(C(=O)Nc2cccc(C(F)(F)F)c2)n1	-26.28
Nc1ccc(C(=O)OCCCc2nc3cc4ccccc4cc3[nH]2)cc1	-1.762
CCN(CC)CCN(C(=O)c1ccccc1OC)c1nc2ccc(F)cc2s1	-7.925
O=C(Nc1cccc(-c2cn3ccccc3n2)c1)c1ccccc1	-27.43
CCOc1ccc(OCc2cccc(C(=O)O)c2)cc1	-8.589
O=C(Nc1cccc(S(=O)(=O)c2cccc(NC(=O)C3CC3)c2)c1)C1CC1	31.34
C#CC(C)(C)NC(=O)c1ccc(-c2ccccc2F)cc1	-13.86
NC(=O)c1cc(NC(=O)c2cc(Br)c(Br)s2)cc(C(N)=O)c1	-32.55
CCN(CC)C(=O)c1sc2nc(-c3ccccc3)ccc2c1N	-27.37
CCN(C(=O)COC(=O)c1ccc([N+](=O)[O-])o1)c1cccc2ccccc12	-22.55
O=S(=O)(NC1CC1)c1ccc(S(=O)(=O)N2CCc3ccccc32)cc1	-22.14
O=C1OCCC1Sc1nc2ccccc2c(=O)n1Cc1ccccc1 (stereo not shown)	-21.83
O=C(Cn1cc(C(=O)c2ccco2)c2ccccc21)Nc1ccccc1F	-35.66
CC(=O)c1ccc(-c2cccc([C@H]3[C@@H]4C=CC[C@@H](C)[C@@H]4C(=O)N3Cc3ccccc3)c2)cc1	18.84
COc1cc(C2CC(=O)Oc3cc(C)cc(C)c32)cc(OC)c1OC (stereo not shown)	29.81
COc1ccc(CC(=O)NC(C)c2ccc3ccccc3c2)cc1 (stereo not shown)	-21.5
O=C(CSc1nc2ccccc2[nH]1)Nc1cccc(S(=O)(=O)N2CCOCC2)c1	-39.3
CCCN(CC(=O)Nc1ccccc1C)C(=O)c1cccc(S(=O)(=O)N2CCc3ccccc3C2)c1	-33.17
Cc1ccc(NC(=O)c2ccc(Br)o2)cc1S(=O)(=O)N(C)C	-19.73
CC(=O)Nc1ccc(NS(=O)(=O)c2ccc(Cl)s2)cc1	24.54
CN(CC(=O)Nc1cccc(F)c1)C(=O)Cn1c(=O)oc2ccccc21	18.6
COc1cccc(NC(=O)c2ccc(NCCCN3CC(C)CC(C)C3)c([N+](=O)[O-])c2)c1 (stereo not shown)	-4.956
O=C(CCC(=O)c1cccs1)OCC(=O)c1ccc(Cl)s1	-14.28

For reference, 6 entries once more:

{"smiles": "O=C(Cn1cc(C(=O)c2ccco2)c2ccccc21)Nc1ccccc1F", "activity change": "-35.66"}
{"smiles": "COc1cccc(NC(=O)c2ccc(NCCCN3CC(C)CC(C)C3)c([N+](=O)[O-])c2)c1", "stereo": "stereo not shown", "activity change": "-4.956"}
{"smiles": "CCC(C(=O)Nc1ccsc1C(=O)OC)c1ccccc1", "stereo": "stereo not shown", "activity change": "-16.61"}
{"smiles": "CCn1cc(Cl)c(C(=O)Nc2cccc(C(F)(F)F)c2)n1", "activity change": "-26.28"}
{"smiles": "O=C(Nc1cccc(-c2cn3ccccc3n2)c1)c1ccccc1", "activity change": "-27.43"}
{"smiles": "c1cncc(-c2nc3cc4ccccc4cc3[nH]2)c1", "activity change": "-44.52"}

From PubChem BioAssay record AID977630 (Broad Institute, 2014).